PubChem BioAssay AID1259254 | NCATS | 2017

Aim: 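Genome-wide screen for genes that prevent DNA re-replication in cancer cells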 (primary screen)
Cell system: human HCT116 colorectal cancer cells
Reagent: single siRNA against human genes
Time to read-out: 3 days
Detection: 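Imaged Hoechst DNA stain sorts each cell into a cycle phase by DNA amount; per plate, G2 fraction set to 0% for non-targeting and 100% for GMNN siRNA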
Reading the numbers: G2 robust z-score: higher = more G2 cells, more excess DNA replication
Rule for the call: 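An siRNA counts as active if its G2 robust z-score lies at least 5 MADs above the screen median; here such calls match roughly 38% of GMNN control or more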
The whole screen tested about 59,000 reagents; this is a random part of them. About 1,550 of all reagents (2.6%) count as active. 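G2 share is only a proxy for re-replication; each gene was hit by three separate siRNAs, and active genes were retested.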 Reagents against one gene are numbered here. Not all columns of the deposit are shown. Not stated in the record: the amount of reagent.

| Gene | reagent no. | G2 robust z-score | Call |
| --- | --- | --- | --- |
| SMCO4 (single-pass membrane protein with coiled-coil domains 4) | 1 | 0.832 | inactive |
| SMCO4 (single-pass membrane protein with coiled-coil domains 4) | 2 | 0.763 | inactive |
| SMCO4 (single-pass membrane protein with coiled-coil domains 4) | 3 | -0.851 | inactive |
| KRT34 (keratin 34) | 1 | -0.626 | inactive |
| KRT34 (keratin 34) | 2 | -0.7 | inactive |
| KRT34 (keratin 34) | 3 | -0.137 | inactive |
| PECAM1 (platelet and endothelial cell adhesion molecule 1) | 1 | 11.6 | active |
| PECAM1 (platelet and endothelial cell adhesion molecule 1) | 2 | -0.398 | inactive |
| PECAM1 (platelet and endothelial cell adhesion molecule 1) | 3 | 0.644 | inactive |
| NCF1 (neutrophil cytosolic factor 1) | 1 | 0.488 | inactive |
| NCF1 (neutrophil cytosolic factor 1) | 2 | -0.419 | inactive |
| NCF1 (neutrophil cytosolic factor 1) | 3 | 2.72 | inactive |
| KIAA1191 | 1 | 0.264 | inactive |
| KIAA1191 | 2 | 0.738 | inactive |
| KIAA1191 | 3 | -0.197 | inactive |
| OTULIN (OTU deubiquitinase with linear linkage specificity) | 1 | -0.0544 | inactive |
| OTULIN (OTU deubiquitinase with linear linkage specificity) | 2 | 0.858 | inactive |
| OTULIN (OTU deubiquitinase with linear linkage specificity) | 3 | 0.512 | inactive |
| UBXN11 (UBX domain protein 11) | 1 | -0.927 | inactive |
| UBXN11 (UBX domain protein 11) | 2 | -0.777 | inactive |
| UBXN11 (UBX domain protein 11) | 3 | 1.07 | inactive |
| PCDHGA6 (protocadherin gamma subfamily A, 6) | 1 | 4.17 | inactive |
| PCDHGA6 (protocadherin gamma subfamily A, 6) | 2 | -0.0571 | inactive |
| PCDHGA6 (protocadherin gamma subfamily A, 6) | 3 | 1.14 | inactive |
| ST6GALNAC5 (ST6 N-acetylgalactosaminide alpha-2,6-sialyltransferase 5) | 1 | 0.0993 | inactive |
| ST6GALNAC5 (ST6 N-acetylgalactosaminide alpha-2,6-sialyltransferase 5) | 2 | 4 | inactive |
| ST6GALNAC5 (ST6 N-acetylgalactosaminide alpha-2,6-sialyltransferase 5) | 3 | -0.392 | inactive |
| CEP57L1 (centrosomal protein 57 like 1) | 1 | 0.0911 | inactive |
| CEP57L1 (centrosomal protein 57 like 1) | 2 | -0.569 | inactive |
| CEP57L1 (centrosomal protein 57 like 1) | 3 | 0.201 | inactive |
| USPL1 (ubiquitin specific peptidase like 1) | 1 | 0.837 | inactive |
| USPL1 (ubiquitin specific peptidase like 1) | 2 | -1.02 | inactive |
| USPL1 (ubiquitin specific peptidase like 1) | 3 | 3.69 | inactive |

Entries listed above called active (1):
| Gene | reagent no. | G2 robust z-score | Call |
| --- | --- | --- | --- |
| PECAM1 (platelet and endothelial cell adhesion molecule 1) | 1 | 11.6 | active |

Additional reagents follow:
| Gene | reagent no. | G2 robust z-score | Call |
| --- | --- | --- | --- |
| C1orf115 (chromosome 1 open reading frame 115) | 1 | 0.536 | inactive |
| C1orf115 (chromosome 1 open reading frame 115) | 2 | -0.39 | inactive |
| C1orf115 (chromosome 1 open reading frame 115) | 3 | -0.919 | inactive |
| LYRM1 (LYR motif containing 1) | 1 | -0.297 | inactive |
| LYRM1 (LYR motif containing 1) | 2 | 0.194 | inactive |
| LYRM1 (LYR motif containing 1) | 3 | -0.388 | inactive |
| DNASE1L2 (deoxyribonuclease 1 like 2) | 1 | 0.688 | inactive |
| DNASE1L2 (deoxyribonuclease 1 like 2) | 2 | -1.12 | inactive |
| DNASE1L2 (deoxyribonuclease 1 like 2) | 3 | -0.837 | inactive |
| ARHGAP8 (Rho GTPase activating protein 8) | 1 | -0.094 | inactive |
| ARHGAP8 (Rho GTPase activating protein 8) | 2 | -0.0201 | inactive |
| ARHGAP8 (Rho GTPase activating protein 8) | 3 | 2 | inactive |
| SH2D5 (SH2 domain containing 5) | 1 | 1.54 | inactive |
| SH2D5 (SH2 domain containing 5) | 2 | -1.08 | inactive |
| SH2D5 (SH2 domain containing 5) | 3 | -0.374 | inactive |
| ELF1 (E74 like ETS transcription factor 1) | 1 | -0.266 | inactive |
| ELF1 (E74 like ETS transcription factor 1) | 2 | 0.0603 | inactive |
| ELF1 (E74 like ETS transcription factor 1) | 3 | 0.778 | inactive |
| RANBP10 (RAN binding protein 10) | 1 | 0.151 | inactive |
| RANBP10 (RAN binding protein 10) | 2 | -0.931 | inactive |
| RANBP10 (RAN binding protein 10) | 3 | 0.285 | inactive |
| CSF1 (colony stimulating factor 1) | 1 | -0.159 | inactive |
| CSF1 (colony stimulating factor 1) | 2 | 0.432 | inactive |
| CSF1 (colony stimulating factor 1) | 3 | -0.216 | inactive |
| LOC100420746 | 1 | 0.896 | inactive |
| LOC100420746 | 2 | 1.64 | inactive |
| LOC100420746 | 3 | -0.144 | inactive |
| AQP10 (aquaporin 10) | 1 | -0.829 | inactive |
| AQP10 (aquaporin 10) | 2 | 1.04 | inactive |
| AQP10 (aquaporin 10) | 3 | -0.942 | inactive |
| EPS15L1 (epidermal growth factor receptor pathway substrate 15 like 1) | 1 | -0.271 | inactive |
| EPS15L1 (epidermal growth factor receptor pathway substrate 15 like 1) | 2 | 0.669 | inactive |
| EPS15L1 (epidermal growth factor receptor pathway substrate 15 like 1) | 3 | 0.607 | inactive |
| CYGB (cytoglobin) | 1 | -0.952 | inactive |
| CYGB (cytoglobin) | 2 | 2.29 | inactive |
| CYGB (cytoglobin) | 3 | -0.566 | inactive |
| MED8 (mediator complex subunit 8) | 1 | 1.05 | inactive |
| MED8 (mediator complex subunit 8) | 2 | 1.03 | inactive |
| MED8 (mediator complex subunit 8) | 3 | -0.893 | inactive |
| PRSS21 (serine protease 21) | 1 | -0.0683 | inactive |
| PRSS21 (serine protease 21) | 2 | 0.122 | inactive |
| PRSS21 (serine protease 21) | 3 | -1.69 | inactive |
| ALAS1 (5'-aminolevulinate synthase 1) | 1 | 4.59 | inactive |
| ALAS1 (5'-aminolevulinate synthase 1) | 2 | 0.621 | inactive |
| ALAS1 (5'-aminolevulinate synthase 1) | 3 | -1.26 | inactive |
| COXFA4L2 (cytochrome c oxidase hypoxia associated subunit FA4L2) | 1 | 2.77 | inactive |
| COXFA4L2 (cytochrome c oxidase hypoxia associated subunit FA4L2) | 2 | -0.0872 | inactive |
| COXFA4L2 (cytochrome c oxidase hypoxia associated subunit FA4L2) | 3 | 2.16 | inactive |
| SH2D3A (SH2 domain containing 3A) | 1 | 0.64 | inactive |
| SH2D3A (SH2 domain containing 3A) | 2 | 0.194 | inactive |
| SH2D3A (SH2 domain containing 3A) | 3 | -0.729 | inactive |
| PIK3C2G | 1 | -0.653 | inactive |
| PIK3C2G | 2 | 4 | inactive |
| PIK3C2G | 3 | -0.925 | inactive |
